We go through 16 compounds from PubChem BioAssay AID248 (DTP/NCI, 2004).

In the assay the test system is L1210 leukemia ip in BDF1 mice, survival T/C. The assay can be described thus: NCI In Vivo Anticancer Drug Screen. Data for tumor model L1210 Leukemia (intraperitoneal) in B6D2F1 (BDF1) mice. The following applies: T/C endpoint: mean survival time, higher T/C = longer survival.
The mark [1] stands for this setting: dose: 150.0 mg/kg/injection, schedule: Q01DX001 (ip), vehicle: carboxymethylcellulose (CMC).
Where [2] appears, read: dose: 300.0 mg/kg/injection, schedule: Q01DX001 (ip), vehicle: carboxymethylcellulose (CMC).
Setting [3] is: dose: 400.0 mg/kg/injection, schedule: Q01DX001 (ip), vehicle: Klucel (hydroxypropylcellulose) (HPC).

The list is a part of this screen's results and no random one: it gathers tests that were run many times, whatever their T/C, doses with no T/C, and many T/C values between a quarter and a half above the control. Further doses and runs are listed elsewhere. T/C is the treated group as % of the vehicle group. Some doses have a count of surviving animals in place of a T/C: the source files T/C as zero there, which appears to mark a toxic dose or a test without result, not a measured value. Some survivor counts are full or nearly so, which does not show that the dose was tolerated: the source hardly ever lists a survival T/C far under the control, and the zero likely stands for such cases as well. Survivors were counted at the toxicity check, usually on the fifth day, unless a day is given; later deaths do not show. Schedules are NCI's codes, read here as Q, the interval in days (D) or hours (H), X, the number of doses. Some entries hold several experiments; the results are listed from low to high. Some molecules as drawn cover several salts, stereoisomers or complexes of the source; a dose is that of the sample tested. Some schedules carry Z or #; the key to these is not given. Counts like (3×) stand for listed records that agree. For survival time, the PubChem record calls one and a half times the control and up active, and a quarter to a half above the control has no call in these data; cut-offs in other NCI protocols can differ. Some T/C values carry the count of animals alive at the toxicity check (mostly the fifth day); without a count, all were alive then.

As for `O=C1C=CC(=O)O1` (tested in a mixture with another compound), the survivor count is, setting by setting: (dose: 10.0 mg/kg/injection, schedule: Q04DX003 (ip), vehicle: Klucel (hydroxypropylcellulose) (HPC)) 3 of 6; (dose: 12.5 mg/kg/injection, schedule: Q04DX003 (ip), vehicle: carboxymethylcellulose (CMC)) 6 of 6; (dose: 25.0 mg/kg/injection, schedule: Q04DX003 (ip), vehicle: carboxymethylcellulose (CMC)) 6 of 6; (dose: 50.0 mg/kg/injection, schedule: Q01DX015 (ip), vehicle: carboxymethylcellulose (CMC)) 6 of 6; (dose: 50.0 mg/kg/injection, schedule: Q04DX003 (ip), vehicle: carboxymethylcellulose (CMC)) 4 of 6; (dose: 60.0 mg/kg/injection, schedule: Q01DX001 (ip), vehicle: carboxymethylcellulose (CMC)) 1 of 6. The survivor count was 0 of 6 (dose: 100.0 mg/kg/injection, schedule: Q01DX001 (ip), vehicle: other); 4 of 6 (dose: 100.0 mg/kg/injection, schedule: Q04DX003 (ip), vehicle: other); 5 of 6 under setting [1]; 0 of 6 (dose: 200.0 mg/kg/injection, schedule: Q01DX001 (ip), vehicle: other); 0 of 6 and 3 of 6 (dose: 200.0 mg/kg/injection, schedule: Q01DX009 (ip), vehicle: saline); 1 of 6 (dose: 200.0 mg/kg/injection, schedule: Q04DX003 (ip), vehicle: other). Moreover, the survivor count was 1 of 6 under setting [2]; 0 of 6 (dose: 400.0 mg/kg/injection, schedule: Q01DX001 (ip), vehicle: other); 1 of 6 (2×) and 3 of 6 (dose: 400.0 mg/kg/injection, schedule: Q01DX009 (ip), vehicle: saline); 1 of 6 (dose: 400.0 mg/kg/injection, schedule: Q04DX003 (ip), vehicle: other); 2 of 6 (3×) and 3 of 6 (dose: 400.0 mg/kg/injection, schedule: Q04DX003 (ip), vehicle: saline); 0 of 6 (dose: 800.0 mg/kg/injection, schedule: Q01DX009 (ip), vehicle: saline). Further, the T/C (dose: 100.0 mg/kg/injection, schedule: Q01DX009 (ip), vehicle: saline) is 132 % of control [5 of 6 alive].

As for `O=S1Oc2ccccc2O1`, the survivor count (dose: 300.0 mg/kg/injection, schedule: Q01DX001 (ip), vehicle: saline) was 0 of 6.

As to `Cc1ccc(C2C(C(=O)c3ccccc3)N2Cc2ccccc2)cc1` (configuration not stated), under setting [3], the survivor count is on record as 0 of 6.

In the case of `CC(=O)OCC1OC(=O)C(C)N(C)C(=O)CN(C)C(=O)C2C(=O)CC(C)N2C(=O)C(C(C)C)NC(=O)C1NC(=O)c1c2nc3c(C(=O)NC4C(=O)NC(C(C)C)C(=O)N5C(C)CC(OC(C)=O)C5C(=O)N(C)CC(=O)N(C)C(C(C)C)C(=O)OC4C)ccc(C)c3oc-2c(C)c(=O)c1N` (configuration not stated), for the setting “dose: 0.8 mg/kg/injection, schedule: Q01DX009 (ip), vehicle: saline with Tween-80”, the T/C was 126 % of control.

Consider `CC1CN=C(c2ccc(NC(=O)C3CCC(C(=O)Nc4ccc(C5=NCC(C)N5)cc4)CC3)cc2)N1` (configuration not stated), for which the survivor count is reported as 6 of 6 (dose: 125.0 mg/kg/injection, schedule: Q01DX015 (ip), vehicle: methylcellulose (MC)) and 3 of 6 (dose: 250.0 mg/kg/injection, schedule: Q01DX015 (ip), vehicle: methylcellulose (MC)).

`N#Cc1cccc(N)c1`: the survivor count (dose: 200.0 mg/kg/injection, schedule: Q01DX001 (ip), vehicle: saline) is 0 of 4.

For the compound `Nc1nc(N)c2nc(COc3ccc(C(=O)NC(CCC(=O)O)C(=O)O)cc3)cnc2n1` (configuration not stated), the T/C was 129 and 132 % of control (dose: 1.25 mg/kg/injection, schedule: Q01DX009 (ip), vehicle: sodium bicarbonate); 127 % of control (dose: 1.8 mg/kg/injection, schedule: Q01DX009 (ip), vehicle: sodium bicarbonate). Also, the survivor count runs as follows: (dose: 10.0 mg/kg/injection, schedule: Q01DX009 (ip), vehicle: sodium bicarbonate) 6 of 6; (dose: 20.0 mg/kg/injection, schedule: Q01DX009 (ip), vehicle: sodium bicarbonate) 5 of 6 and 6 of 6; (dose: 40.0 mg/kg/injection, schedule: Q01DX009 (ip), vehicle: sodium bicarbonate) 4 of 6; (dose: 80.0 mg/kg/injection, schedule: Q01DX009 (ip), vehicle: sodium bicarbonate) 2 of 6.

Regarding `Cc1cc(N(CCOS(C)(=O)=O)CCOS(C)(=O)=O)ccc1C=Nc1ccc(-c2csc(-c3ccc(Cl)cc3)n2)cc1`, the survivor count (dose: 100.0 mg/kg/injection, schedule: Q01DX009 (ip), vehicle: Klucel (hydroxypropylcellulose) (HPC)) was 5 of 6.

With `CC(C)CC(C)NCCOC(=O)c1ccc(N)cc1` (configuration not stated), the survivor count under setting [1] is listed as 0 of 6 and the survivor count under setting [2] is 0 of 6.

Regarding `CCC1(C)N=C(N)Nc2nc3ccccc3n21` (configuration not stated), the survivor count (dose: 400.0 mg/kg/injection, schedule: Q01DX001 (ip), vehicle: saline) is 0 of 6.

For `O=NN(CCBr)C(=O)Nc1ccccc1`, for the setting “dose: 55.5 mg/kg/injection, schedule: Q01DX001 (ip), vehicle: carboxymethylcellulose (CMC)”, the T/C is 140 % of control. The survivor count was 2 of 6 (dose: 250.0 mg/kg/injection, schedule: Q01DX Z (ip), vehicle: carboxymethylcellulose (CMC)); 0 of 6 (dose: 400.0 mg/kg/injection, schedule: Q01DX Z (ip), vehicle: carboxymethylcellulose (CMC)); 2 of 10 (dose: 888.0 mg/kg/injection, schedule: Q01DX001 (ip), vehicle: carboxymethylcellulose (CMC)).

For `CCN1CC1` (tested in a mixture with another compound), the survivor count by setting is: (dose: 9.37 mg/kg/injection, schedule: Q01DX009 (ip), vehicle: Klucel (hydroxypropylcellulose) (HPC)) 0 of 6; (dose: 14.2 mg/kg/injection, schedule: Q01DX009 (ip), vehicle: Klucel (hydroxypropylcellulose) (HPC)) 0 of 6; (dose: 21.3 mg/kg/injection, schedule: Q01DX009 (ip), vehicle: Klucel (hydroxypropylcellulose) (HPC)) 0 of 6; (dose: 50.0 mg/kg/injection, schedule: Q01DX001 (ip), vehicle: other) 0 of 6; (dose: 100.0 mg/kg/injection, schedule: Q01DX001 (ip), vehicle: Klucel (hydroxypropylcellulose) (HPC)) 0 of 6; (dose: 200.0 mg/kg/injection, schedule: Q01DX001 (ip), vehicle: Klucel (hydroxypropylcellulose) (HPC)) 0 of 6. Moreover, under setting [3], the survivor count was 0 of 6. The T/C (dose: 12.5 mg/kg/injection, schedule: Q01DX001 (ip), vehicle: other) was 126 % of control [5 of 6 alive].

Regarding `CCCCCCCCCCCCCCCCCC(=O)NCCNC(=O)CCCCCCCCCCCCCCCCC`, the survivor count by setting is: (dose: 100.0 mg/kg/injection, schedule: Q04DX003 (ip), vehicle: Klucel (hydroxypropylcellulose) (HPC)) 6 of 6; (dose: 200.0 mg/kg/injection, schedule: Q04DX003 (ip), vehicle: Klucel (hydroxypropylcellulose) (HPC)) 6 of 6; (dose: 225.0 mg/kg/injection, schedule: Q01DX009 (ip), vehicle: Klucel (hydroxypropylcellulose) (HPC)) 3 of 6; (dose: 335.0 mg/kg/injection, schedule: Q01DX009 (ip), vehicle: Klucel (hydroxypropylcellulose) (HPC)) 3 of 66; (dose: 400.0 mg/kg/injection, schedule: Q04DX003 (ip), vehicle: Klucel (hydroxypropylcellulose) (HPC)) 6 of 6.

As to `O=C(NC(=O)C(Cl)Cl)OC1c2ccccc2-c2ccccc21`, under “dose: 400.0 mg/kg/injection, schedule: Q01DX009 (ip), vehicle: Klucel (hydroxypropylcellulose) (HPC)”, the survivor count is 3 of 6.

Turning to `O=NN(CCCl)C(=O)NC1C=CCCC1` (configuration not stated), the T/C (dose: 13.0 mg/kg/injection, schedule: Q01DX001 (ip), vehicle: other) was 129 % of control. For the same compound, the survivor count (dose: 168.0 mg/kg/injection, schedule: Q01DX001 (ip), vehicle: other) is recorded as 8 of 10.

Take `O=C(Nc1cccc(C2=NCC(O)CN2)c1)c1ccc(C(=O)Nc2cccc(C3=NCC(O)CN3)c2)c(Cl)c1` (configuration not stated): the survivor count is, setting by setting: (dose: 12.5 mg/kg/injection, schedule: Q01DX Z (ip), vehicle: water) 2 of 6; (dose: 25.0 mg/kg/injection, schedule: Q01DX Z (ip), vehicle: water) 0 of 6.
